The target of the assay is cynomolgus monkey PSMA (cynomolgus monkey). In words: ELISA, Biacore and FACS.

No constants are given. Whether binding was seen depends on the method and setting. Some entries that bind do so weakly or less than the wild type.

B1: cHv75-2a7.G1(C99Y;L328C)k (antibody, V domains shown)
VH: EVQLVESGGGLVQPGGSLRLSCAASGITFSNYWMSWVRQAPGKGLEWVANIKKDGSEKFYVDSVKGRFTISRDNAKNSLYLQINSLRAEDTAMYYCAREIQLYLQHWGQGTLVTVSS
VL: DIQMTQSPSSVSASVGGRVTITCRASQGISNWLAWYQQKPGKAPKLLIYAASSLQSGVPSRFSGSGSGTDFTLTISNLQPEDFASYYCQQANSFPLTFGGGTKVEIKR
On to B1, for which the binding entry was “binds”.

The values above are taken from patent publication US20230059690A1.
